No constants are given. Whether binding was seen depends on the method and setting. Some entries that bind do so weakly or less than the wild type.

The chains behind the UniProt entries cited, without tags or fusion partners. Where a name states a change or a piece, a line headed by the entry shows the natural chain unless it says otherwise.
UniProt Q14498: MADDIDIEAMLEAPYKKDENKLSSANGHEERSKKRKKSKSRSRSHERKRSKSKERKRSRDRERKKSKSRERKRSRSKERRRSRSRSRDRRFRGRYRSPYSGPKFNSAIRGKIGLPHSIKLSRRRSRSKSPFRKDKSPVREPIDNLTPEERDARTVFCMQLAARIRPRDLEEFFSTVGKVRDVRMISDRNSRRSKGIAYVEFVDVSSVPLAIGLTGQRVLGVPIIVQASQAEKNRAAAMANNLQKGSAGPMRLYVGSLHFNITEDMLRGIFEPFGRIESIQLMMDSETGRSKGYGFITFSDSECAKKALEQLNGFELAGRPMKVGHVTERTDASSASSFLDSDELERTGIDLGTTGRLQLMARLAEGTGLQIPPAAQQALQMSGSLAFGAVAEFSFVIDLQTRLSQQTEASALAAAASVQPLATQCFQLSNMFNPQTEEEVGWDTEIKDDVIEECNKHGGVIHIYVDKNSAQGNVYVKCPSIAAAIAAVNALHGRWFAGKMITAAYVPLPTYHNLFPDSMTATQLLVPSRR

This assay addresses BodipyFL-maleimide-labelled DCAF15-Spycatcher (UniProt Q66K64). In words: TR-FRET with E7820 (FIG. 16); wild-type reference.

As for “biotinylated Strep II Avi-tagged RBM39RRM2 (from UniProt Q14498 245-332)”, the binding result is “binds”.
